This note sets out measurements from publication PMC6358605.

Assay [1] concerns the target T1, biotinylated AviTag-SAPLIP^22–123 (mouse) (UniProt Q9CXI5).
T1 sequence (chain, biotin (on the AviTag, by E. coli BirA)): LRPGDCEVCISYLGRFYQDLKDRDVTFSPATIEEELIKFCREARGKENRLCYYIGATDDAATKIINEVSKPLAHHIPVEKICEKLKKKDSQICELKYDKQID
Kind of assay: BLI; streptavidin biosensors loaded with biotinylated MANF, SAP or SAPLIP; BiP^T229A-V461F (46 µM) as analyte with 2 mM ATP; HKMT buffer, Octet RED96; both purified. On the technique in general: In BLI a coated tip is dipped into the sample, and binding shifts an interference pattern.

The target of assay [2] is T2, biotinylated AviTag-SAP^119–179 (mouse) (UniProt Q9CXI5).
T2 sequence (chain, biotin (on the AviTag, by E. coli BirA)): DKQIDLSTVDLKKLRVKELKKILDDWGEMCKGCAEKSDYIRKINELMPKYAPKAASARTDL
Described as above.

The target in assay [3] is T3, biotinylated AviTag-MANF^22–179 (mouse) (UniProt Q9CXI5).
T3 sequence (chain, biotin (on the AviTag, by E. coli BirA)): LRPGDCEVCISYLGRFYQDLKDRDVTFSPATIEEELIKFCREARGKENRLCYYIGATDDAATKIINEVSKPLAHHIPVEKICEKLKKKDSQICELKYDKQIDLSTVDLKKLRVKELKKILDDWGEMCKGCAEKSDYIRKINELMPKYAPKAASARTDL
The description is as above.

Assay [4] deals with T1, biotinylated AviTag-SAPLIP^22–123 (mouse). As to the kind of experiment: BLI; streptavidin biosensors loaded with biotinylated MANF, SAP or SAPLIP; BiP^T229A-V461F (46 µM) as analyte with 2 mM ADP; HKMT buffer (50 mM HEPES-KOH pH 7.4, 100 mM KCl, 10 mM MgCl2, 0.05% Triton X-100), Octet RED96; both purified.
In assay [5] the target is T2, biotinylated AviTag-SAP^119–179 (mouse). The description is as above.
Assay [6] has as its target T3, biotinylated AviTag-MANF^22–179 (mouse). The assay is described as above.
Assay [7] concerns the target T2, biotinylated AviTag-SAP^119–179 (mouse). Kind of assay: BLI; sequential dipping: streptavidin biosensors loaded with biotinylated MANF, SAP or SAPLIP, dipped in BiP SBD, buffer, BiP NBD with 2 mM ATP, 2 mM ATP, BiP NBD with 2 mM ADP, 2 mM ADP; HKMT buffer; both purified.
For assay [8], the target named is T3, biotinylated AviTag-MANF^22–179 (mouse). The assay is described as above.

Results are given in words; binding and its absence hold for the method and conditions named. For some assays here: Binding can be weak; no strength is given. Tags and fused reporters may be left off the sequences shown.

Consider BiP^T229A-V461F (Chinese hamster), for which the binding result is on record as “no binding (tested: 46 µM)” in assay [1]; “no binding (only with 2 mM ATP (BiP at 46 µM))” in assay [2]; “no binding (only with 2 mM ATP (BiP at 46 µM))” in assay [3]; “no binding (tested: 46 µM)” in assay [4]; “binds” in assay [5]; “binds” in assay [6].

Regarding “isolated BiP substrate (client)-binding domain (Chinese hamster) (domain or fragment)”, the binding entry in assay [7] and in assay [8] was “no binding” in each case.
